Results taken from article PMC6549480.
These are yes or no findings as the source states them, for the method shown. In cells and extracts the contact can be indirect. Some binding calls cover weakened binding; strength is not graded here.

By UniProt entry, the sequences of proteins in these tests, tags left out.
UniProt O43242: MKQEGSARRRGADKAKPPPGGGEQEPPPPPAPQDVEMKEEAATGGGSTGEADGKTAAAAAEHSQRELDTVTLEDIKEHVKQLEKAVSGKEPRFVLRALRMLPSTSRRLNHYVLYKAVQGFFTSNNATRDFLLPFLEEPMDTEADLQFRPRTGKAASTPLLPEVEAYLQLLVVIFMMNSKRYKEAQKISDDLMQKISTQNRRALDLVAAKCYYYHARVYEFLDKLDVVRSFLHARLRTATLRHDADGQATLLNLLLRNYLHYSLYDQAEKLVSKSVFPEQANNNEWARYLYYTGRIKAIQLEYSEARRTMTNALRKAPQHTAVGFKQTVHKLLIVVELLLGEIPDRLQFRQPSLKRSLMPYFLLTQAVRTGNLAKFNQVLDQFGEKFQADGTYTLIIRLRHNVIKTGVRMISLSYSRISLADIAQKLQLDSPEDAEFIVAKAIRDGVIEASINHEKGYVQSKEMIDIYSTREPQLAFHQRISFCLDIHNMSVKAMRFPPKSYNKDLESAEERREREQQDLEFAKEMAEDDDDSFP

What was measured:
[1] = target: Proteasome 26S subunit, non-ATPase 3 (PSMD3) (human (endogenous in BT-474, SKBR3, HCC1419)) (UniProt O43242); test: co-IP; total cell lysates (0.8-1 mg) of HER2+ cells (BT-474, SKBR3, HCC1419), precleared, incubated with PSMD3 or HER2 antibody overnight at 4 °C, protein A or G agarose beads, IgG as negative control; Western blot with anti-PSMD3 or anti-HER2
[2] = target: Human epidermal growth factor receptor 2 (HER2) (human (endogenous in BT-474, SKBR3, HCC1419)) (UniProt P04626); test: as above
[3] = target: Human epidermal growth factor receptor 2 (HER2) (human (endogenous in BT-474, SKBR3, HCC1419)) (UniProt P04626); test: FRET or BRET; confocal FRET on fixed cells (BT-474, SKBR3, HCC-1419) stained with PSMD3 and HER2 primary antibodies at 4 °C overnight, then secondary antibodies conjugated with Rhodamine (anti-PSMD3) and FITC (anti-HER2) for an hour at room temperature

binding [1] | binding [2] | binding [3] | Substance
binds | – | – | Human epidermal growth factor receptor 2 (HER2) (from UniProt P04626 23-1255)
– | binds | binds | Proteasome 26S subunit, non-ATPase 3 (PSMD3) (from UniProt O43242 1-534)
